Patent publication US20240352143A1
Results are given in words; binding and its absence hold for the method and conditions named. Some results given as binding are weak or reduced against the parent protein; the word gives no strength.

Chains of the proteins cited; added tags and fusions are not shown. Lines headed by an entry give the natural chain unless they say otherwise; changes in a name come on top.
UniProt P21589: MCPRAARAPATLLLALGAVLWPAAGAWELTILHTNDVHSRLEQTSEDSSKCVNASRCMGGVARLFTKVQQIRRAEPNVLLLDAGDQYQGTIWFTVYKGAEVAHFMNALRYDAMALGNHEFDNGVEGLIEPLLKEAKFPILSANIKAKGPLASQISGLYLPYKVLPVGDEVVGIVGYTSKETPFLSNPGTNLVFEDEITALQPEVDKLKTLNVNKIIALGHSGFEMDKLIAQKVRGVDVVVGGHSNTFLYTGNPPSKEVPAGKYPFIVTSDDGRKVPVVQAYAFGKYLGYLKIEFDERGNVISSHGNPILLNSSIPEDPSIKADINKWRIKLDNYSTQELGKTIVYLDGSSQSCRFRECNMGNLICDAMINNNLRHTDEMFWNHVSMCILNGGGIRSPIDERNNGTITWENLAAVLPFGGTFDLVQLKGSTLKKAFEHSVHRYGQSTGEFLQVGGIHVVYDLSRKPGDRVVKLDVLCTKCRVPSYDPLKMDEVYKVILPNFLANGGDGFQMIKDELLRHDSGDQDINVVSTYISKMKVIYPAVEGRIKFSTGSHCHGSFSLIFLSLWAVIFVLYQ

B1: CL25_hu_10-6 (antibody, V domains shown)
VH: EVQLVQSGAEVKKPGESLKISCKGSGYTFTSYGLSWVRQMPGKGLEWMGEIYPGSGNTYYNEKFKGQVTISADKSISTAYLQWSSLKASDTAMYYCARYDYLGSSYGFDYWGAGTTVTVSS
VL: AIRMTQSPSSFSASTGDRVTITCKASQDVSTAVAWYQQKPGKAPKLLIYSASYRYSGVPSRFSGSGSGTDFTLTISCLQSEDFATYYCQQHYNTPYTFGGGTKLEIK
B2: CL25_hu_11-4 (antibody, V domains shown)
VH: QVQLVQSGAEVKKPGASVKVSCKASGYTFTSYGLSWVRQATGQGLEWMGEIYPGSGNTYYNEKFKGRVTMTANTSISTAYMELSSLRSEDTAVYYCARYDYLGSSYGFDYWGAGTTVTVSS
VL: DIQMTQSPSSLSASVGDRVTITCKASQDVSTAVAWYQQKPGKAPKLLLYSASYRYSGVPSRFSGSGSGTDYTLTISSLQPEDFATYYCQQHYNTPYTFGGGTKLEIK
B3: CL25_hu_11-5 (antibody, V domains shown)
VH: QVQLVQSGAEVKKPGASVKVSCKASGYTFTSYGLSWVRQATGQGLEWMGEIYPGSGNTYYNEKFKGRVTMTANTSISTAYMELSSLRSEDTAVYYCARYDYLGSSYGFDYWGAGTTVTVSS
VL: DIVMTQSPDSLAVSLGERATINCKASQDVSTAVAWYQQKPGQPPKLLIYSASYRYSGVPDRFSGSGSGTDFTLTISSLQAEDVAVYYCQQHYNTPYTFGGGTKLEIK
B4: CL25_hu_11-6 (antibody, V domains shown)
VH: QVQLVQSGAEVKKPGASVKVSCKASGYTFTSYGLSWVRQATGQGLEWMGEIYPGSGNTYYNEKFKGRVTMTANTSISTAYMELSSLRSEDTAVYYCARYDYLGSSYGFDYWGAGTTVTVSS
VL: AIRMTQSPSSFSASTGDRVTITCKASQDVSTAVAWYQQKPGKAPKLLIYSASYRYSGVPSRFSGSGSGTDFTLTISCLQSEDFATYYCQQHYNTPYTFGGGTKLEIK
B5: CL25_hu_8-4 (antibody, V domains shown)
VH: QVQLVQSGAEVKKPGASVKVSCKASGYTFTSYGLSWVRQATGQGLEWMGEIYPGSGNTYYNEKFKGRVTMTRNTSISTAYMELSSLRSEDTAVYYCARYDYLGSSYGFDYWGAGTTVTVSS
VL: DIQMTQSPSSLSASVGDRVTITCKASQDVSTAVAWYQQKPGKAPKLLLYSASYRYSGVPSRFSGSGSGTDYTLTISSLQPEDFATYYCQQHYNTPYTFGGGTKLEIK
B6: CL25_hu_8-5 (antibody, V domains shown)
VH: QVQLVQSGAEVKKPGASVKVSCKASGYTFTSYGLSWVRQATGQGLEWMGEIYPGSGNTYYNEKFKGRVTMTRNTSISTAYMELSSLRSEDTAVYYCARYDYLGSSYGFDYWGAGTTVTVSS
VL: DIVMTQSPDSLAVSLGERATINCKASQDVSTAVAWYQQKPGQPPKLLIYSASYRYSGVPDRFSGSGSGTDFTLTISSLQAEDVAVYYCQQHYNTPYTFGGGTKLEIK
B7: CL25_hu_8-6 (antibody, V domains shown)
VH: QVQLVQSGAEVKKPGASVKVSCKASGYTFTSYGLSWVRQATGQGLEWMGEIYPGSGNTYYNEKFKGRVTMTRNTSISTAYMELSSLRSEDTAVYYCARYDYLGSSYGFDYWGAGTTVTVSS
VL: AIRMTQSPSSFSASTGDRVTITCKASQDVSTAVAWYQQKPGKAPKLLIYSASYRYSGVPSRFSGSGSGTDFTLTISCLQSEDFATYYCQQHYNTPYTFGGGTKLEIK
B8: CL25_hu_9-4 (antibody, V domains shown)
VH: QVQLVQSGAEVKKPGSSVKVSCKASGYTFTSYGLSWVRQAPGQGLEWMGEIYPGSGNTYYNEKFKGRVTITADESTSTAYMELSSLRSEDTAVYYCARYDYLGSSYGFDYWGAGTTVTVSS
VL: DIQMTQSPSSLSASVGDRVTITCKASQDVSTAVAWYQQKPGKAPKLLLYSASYRYSGVPSRFSGSGSGTDYTLTISSLQPEDFATYYCQQHYNTPYTFGGGTKLEIK
B9: CL25_hu_9-5 (antibody, V domains shown)
VH: QVQLVQSGAEVKKPGSSVKVSCKASGYTFTSYGLSWVRQAPGQGLEWMGEIYPGSGNTYYNEKFKGRVTITADESTSTAYMELSSLRSEDTAVYYCARYDYLGSSYGFDYWGAGTTVTVSS
VL: DIVMTQSPDSLAVSLGERATINCKASQDVSTAVAWYQQKPGQPPKLLIYSASYRYSGVPDRFSGSGSGTDFTLTISSLQAEDVAVYYCQQHYNTPYTFGGGTKLEIK
B10: CL25_hu_9-6 (antibody, V domains shown)
VH: QVQLVQSGAEVKKPGSSVKVSCKASGYTFTSYGLSWVRQAPGQGLEWMGEIYPGSGNTYYNEKFKGRVTITADESTSTAYMELSSLRSEDTAVYYCARYDYLGSSYGFDYWGAGTTVTVSS
VL: AIRMTQSPSSFSASTGDRVTITCKASQDVSTAVAWYQQKPGKAPKLLIYSASYRYSGVPSRFSGSGSGTDFTLTISCLQSEDFATYYCQQHYNTPYTFGGGTKLEIK
B11: CL25_hu_10-4 (antibody, V domains shown)
VH: EVQLVQSGAEVKKPGESLKISCKGSGYTFTSYGLSWVRQMPGKGLEWMGEIYPGSGNTYYNEKFKGQVTISADKSISTAYLQWSSLKASDTAMYYCARYDYLGSSYGFDYWGAGTTVTVSS
VL: DIQMTQSPSSLSASVGDRVTITCKASQDVSTAVAWYQQKPGKAPKLLLYSASYRYSGVPSRFSGSGSGTDYTLTISSLQPEDFATYYCQQHYNTPYTFGGGTKLEIK

target: cell surface CD73 on MDA-MB-231 and A375 cells (human) (UniProt P21589); assay: flow cytometry on MDA-MB-231 cells, antibody 30 min on ice, PE-conjugated secondary antibody, GMFI

binding, binds:
B1
B2
B3
B4
B5
B6
B7
B8
B9
B10
B11
